PubChem BioAssay AID1159578, Peter MacCallum Cancer Centre | 2015
The deposit covers about 18,000 reagents; shown is a part drawn at random. About 1,030 of them (5.7%) were called active. 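Inactive calls also include pools with fewer than 3300 nuclei, whose migration was not assessed.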 The raw values are shown without normalisation. Entries without a mark were called inactive.

Purpose: 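Genome-wide hunt for genes controlling movement of lymphatic endothelial cells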 (primary screen)
Cell system: human lymphatic endothelial cells
Reagents: siRNA pool against human genes, 40 nM
Time to read-out: 48 h after transfection
Read-out: 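Cells stained with dye and imaged after a scratch; covered wound area and nuclei counted, duplicates averaged, migration set against mock wells and turned into a robust z-score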
Direction: migration robust z-score: higher = faster migration into the scratch; migration relative to mock: higher = more scratch area covered than mock; nuclei per well: higher = more cells in the well
Active means: 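Pools averaging fewer than 3300 nuclei are never called; remaining pools count as changed when migration robust z lies outside -2 to 2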
Meaning of the calls: active = migration changed; inactive = no migration change, or too few cells

| gene symbol | PubChem SID | migration robust z-score | migration class with cell-count check | migration relative to mock | nuclei per well, duplicate mean |
| --- | --- | --- | --- | --- | --- |
| TAPBPL | SID255358394 | -0.44 | migration z between -2 and 2; enough cells | 0.77 | 5826 |
| PPP6R2 | SID255354484 | -0.76 | migration z between -2 and 2; enough cells | 0.69 | 5616 |
| GSTM3 | SID255350076 | 0.76 | migration z between -2 and 2; enough cells | 0.95 | 5863 |
| CRP | SID255349090 | 0.37 | migration z between -2 and 2; enough cells | 0.98 | 6158 |
| GNL1 | SID255349954 | -0.62 | migration z between -2 and 2; enough cells | 0.72 | 5562 |
| MYO19 | SID255360689 | 0.94 | migration z between -2 and 2; enough cells | 1.13 | 5504 |
| XRCC2 | SID255353159 | -0.28 | migration z between -2 and 2; enough cells | 0.75 | 5952 |
| TMEM236 | SID255365108 | 0.88 | migration z between -2 and 2; enough cells | 1.12 | 6220 |
| RANBP3L | SID255364100 | 2.88 (active) | migration z above 2; enough cells | 1.64 | 6266 |
| USP26 | SID255361094 | 0.36 | migration z between -2 and 2; enough cells | 0.88 | 6132 |
| TMED4 | SID255364331 | -1.09 | under 3300 nuclei; migration not judged | 0.6 | 3064 |
| RFPL4AL1 | SID255366206 | -5.19 | under 3300 nuclei; migration not judged | -0.2 | 2774 |
| TBX2 | SID255352762 | 0.39 | migration z between -2 and 2; enough cells | 0.88 | 6641 |
| SLC26A4 | SID255351497 | 0.28 | migration z between -2 and 2; enough cells | 0.86 | 5486 |
| RPP38-DT | SID255364267 | 0.84 | migration z between -2 and 2; enough cells | 1.1 | 4206 |
| APOBEC3G | SID255359715 | -0.03 | migration z between -2 and 2; enough cells | 0.8 | 4107 |
| SNRPF | SID255352555 | -0.56 | migration z between -2 and 2; enough cells | 0.74 | 5082 |
| NECAP1 | SID255356590 | 0.53 | migration z between -2 and 2; enough cells | 1.02 | 5799 |
| TBC1D32 | SID255364287 | -0.36 | migration z between -2 and 2; enough cells | 0.79 | 6433 |
| MTHFD1L | SID255356540 | -0.65 | migration z between -2 and 2; enough cells | 0.68 | 6390 |
| ATRN | SID255353566 | 0.53 | migration z between -2 and 2; enough cells | 1.03 | 6646 |

Single entries from the entries so far.
RPP38-DT [SID255364267], migration robust z-score = 0.84
Result of TBX2 [SID255352762] under “migration class with cell-count check”: migration z between -2 and 2; enough cells
Entry of ATRN [SID255353566] in “nuclei per well, duplicate mean”: 6646
For “nuclei per well, duplicate mean”, RANBP3L [SID255364100] is entered as 6266 (active)
Entry of XRCC2 [SID255353159] under “migration relative to mock”: 0.75

Next entries follow.
| gene symbol | PubChem SID | migration robust z-score | migration class with cell-count check | migration relative to mock | nuclei per well, duplicate mean |
| --- | --- | --- | --- | --- | --- |
| TAS2R45 | SID255364585 | 1.08 | migration z between -2 and 2; enough cells | 1.16 | 3311 |
| BAIAP2L2 | SID255360654 | 0.98 | migration z between -2 and 2; enough cells | 1.14 | 5608 |
| ZNF35 | SID255353206 | 0.26 | migration z between -2 and 2; enough cells | 0.86 | 5844 |
| TM4SF18 | SID255362373 | -0.72 | migration z between -2 and 2; enough cells | 0.7 | 5115 |
| LUZP4 | SID255357565 | -0.06 | migration z between -2 and 2; enough cells | 0.88 | 4836 |
| CCR2 | SID255348975 | 0.06 | migration z between -2 and 2; enough cells | 0.82 | 5279 |
| FKBP8 | SID255356426 | 0.39 | migration z between -2 and 2; enough cells | 0.98 | 4325 |
| C10orf95 | SID255360584 | -0.01 | migration z between -2 and 2; enough cells | 0.88 | 4260 |
| KCTD17 | SID255360427 | -0.8 | migration z between -2 and 2; enough cells | 0.68 | 4606 |
| SIMC1 | SID255365374 | -1.94 | migration z between -2 and 2; enough cells | 0.38 | 6126 |
| DCP2 | SID255363854 | 0.73 | migration z between -2 and 2; enough cells | 1.08 | 6562 |
| FOXR1 | SID255364640 | 1.12 | migration z between -2 and 2; enough cells | 1.18 | 5880 |
| AATF | SID255356816 | 0.03 | migration z between -2 and 2; enough cells | 0.81 | 6048 |
| ITIH1 | SID255350558 | -0.32 | migration z between -2 and 2; enough cells | 0.8 | 6744 |
| PGBD2 | SID255364610 | 0.58 | migration z between -2 and 2; enough cells | 1.04 | 6152 |
| ZNF48 | SID255363995 | 0.08 | migration z between -2 and 2; enough cells | 0.9 | 4840 |
| ATP6V1H | SID255357810 | -1.06 | migration z between -2 and 2; enough cells | 0.6 | 6183 |
| ZNF275 | SID255355380 | -0.4 | migration z between -2 and 2; enough cells | 0.78 | 5460 |
